# Data taken from paper PMC9618391 (2022).
# These are yes or no findings as the source states them, for the method shown. Binding seen in cells or lysates may run through a third protein. Some entries that bind do so weakly or less than the wild type.
# T1: μ1A (AP1M1) expressed from cDNA in COS-7 cells (UniProt Q9BXS5)
# T1 sequence: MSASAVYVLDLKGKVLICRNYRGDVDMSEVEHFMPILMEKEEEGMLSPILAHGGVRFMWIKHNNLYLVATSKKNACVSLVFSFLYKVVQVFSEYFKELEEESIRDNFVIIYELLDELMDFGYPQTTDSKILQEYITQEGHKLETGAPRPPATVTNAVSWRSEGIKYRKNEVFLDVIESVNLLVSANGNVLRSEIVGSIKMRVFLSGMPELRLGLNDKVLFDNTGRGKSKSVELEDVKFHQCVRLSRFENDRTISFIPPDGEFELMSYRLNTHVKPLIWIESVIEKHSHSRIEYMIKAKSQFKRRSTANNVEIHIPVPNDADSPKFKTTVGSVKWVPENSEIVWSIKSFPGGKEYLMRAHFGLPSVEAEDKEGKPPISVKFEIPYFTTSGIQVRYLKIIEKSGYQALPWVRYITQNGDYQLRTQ
# T2: μ1B (AP1M2) expressed from cDNA in COS-7 cells (UniProt Q9Y6Q5)
# T2 sequence: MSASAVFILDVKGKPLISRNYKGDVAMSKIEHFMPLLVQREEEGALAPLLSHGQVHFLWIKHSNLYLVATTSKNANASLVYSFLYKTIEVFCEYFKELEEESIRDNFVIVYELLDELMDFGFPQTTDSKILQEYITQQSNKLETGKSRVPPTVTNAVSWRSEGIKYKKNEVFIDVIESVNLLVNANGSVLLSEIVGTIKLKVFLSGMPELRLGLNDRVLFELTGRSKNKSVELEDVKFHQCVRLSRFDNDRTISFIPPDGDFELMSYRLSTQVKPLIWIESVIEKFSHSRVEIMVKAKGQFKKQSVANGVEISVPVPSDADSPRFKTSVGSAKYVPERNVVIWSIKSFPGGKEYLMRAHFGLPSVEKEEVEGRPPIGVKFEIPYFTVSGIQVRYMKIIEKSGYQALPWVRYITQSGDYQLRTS
# Tests used:
# [1] = target: T1, μ1A (AP1M1) expressed from cDNA in COS-7 cells; experiment: co-IP; COS-7 cells cotransfected with WT hNIS or mutants and with μ1A or μ1B; IP with μ1A or μ1B antibodies, immunoblot with rabbit polyclonal anti-hNIS antibody; NIS signal in IP standardized to input and normalized to WT
# [2] = target: T2, μ1B (AP1M2) expressed from cDNA in COS-7 cells; experiment: as above
Binder,binding [1],binding [2]
"hNIS L121A (protein, UniProt Q92911 1-643) MEAVETGERPTFGAWDYGVFALMLLVSTGIGLWVGLARGGQRSAEDFFTGGRRLAALPVGLSLSASFMSAVQVLGVPSEAYRYGLKFLWMCLGQLLNSVLTALLFMPVFYRLGLTSTYEYAEMRFSRAVRLCGTLQYIVATMLYTGIVIYAPALILNQVTGLDIWASLLSTGIICTFYTAVGGMKAVVWTDVFQVVVMLSGFWVVLARGVMLVGGPRQVLTLAQNHSRINLMDFNPDPRSRYTFWTFVVGGTLVWLSMYGVNQAQVQRYVACRTEKQAKLALLINQVGLFLIVSSAACCGIVMFVFYTDCDPLLLGRISAPDQYMPLLVLDIFEDLPGVPGLFLACAYSGTLSTASTSINAMAAVTVEDLIKPRLRSLAPRKLVIISKGLSLIYGSACLTVAALSSLLGGGVLQGSFTVMGVISGPLLGAFILGMFLPACNTPGVLAGLGAGLALSLWVALGATLYPPSEQTMRVLPSSAARCVALSVNASGLLDPALLPANDSSRAPSSGMDASRPALADSFYAISYLYYGALGTLTTVLCGALISCLTGPTKRSTLAPGLLWWDLARQTASVAPKEEVAILDDNLVKGPEELPTGNKKPPGFLPTNEDRLFFLGQKELEGAGSWTPCVGHDGGRDQQETNL",binds,binds
"hNIS LL562/563AA (protein, UniProt Q92911 1-643) MEAVETGERPTFGAWDYGVFALMLLVSTGIGLWVGLARGGQRSAEDFFTGGRRLAALPVGLSLSASFMSAVQVLGVPSEAYRYGLKFLWMCLGQLLNSVLTALLFMPVFYRLGLTSTYEYLEMRFSRAVRLCGTLQYIVATMLYTGIVIYAPALILNQVTGLDIWASLLSTGIICTFYTAVGGMKAVVWTDVFQVVVMLSGFWVVLARGVMLVGGPRQVLTLAQNHSRINLMDFNPDPRSRYTFWTFVVGGTLVWLSMYGVNQAQVQRYVACRTEKQAKLALLINQVGLFLIVSSAACCGIVMFVFYTDCDPLLLGRISAPDQYMPLLVLDIFEDLPGVPGLFLACAYSGTLSTASTSINAMAAVTVEDLIKPRLRSLAPRKLVIISKGLSLIYGSACLTVAALSSLLGGGVLQGSFTVMGVISGPLLGAFILGMFLPACNTPGVLAGLGAGLALSLWVALGATLYPPSEQTMRVLPSSAARCVALSVNASGLLDPALLPANDSSRAPSSGMDASRPALADSFYAISYLYYGALGTLTTVLCGALISCLTGPTKRSTLAPGAAWWDLARQTASVAPKEEVAILDDNLVKGPEELPTGNKKPPGFLPTNEDRLFFLGQKELEGAGSWTPCVGHDGGRDQQETNL",binds weakly,binds
"hNIS L583A (protein, UniProt Q92911 1-643) MEAVETGERPTFGAWDYGVFALMLLVSTGIGLWVGLARGGQRSAEDFFTGGRRLAALPVGLSLSASFMSAVQVLGVPSEAYRYGLKFLWMCLGQLLNSVLTALLFMPVFYRLGLTSTYEYLEMRFSRAVRLCGTLQYIVATMLYTGIVIYAPALILNQVTGLDIWASLLSTGIICTFYTAVGGMKAVVWTDVFQVVVMLSGFWVVLARGVMLVGGPRQVLTLAQNHSRINLMDFNPDPRSRYTFWTFVVGGTLVWLSMYGVNQAQVQRYVACRTEKQAKLALLINQVGLFLIVSSAACCGIVMFVFYTDCDPLLLGRISAPDQYMPLLVLDIFEDLPGVPGLFLACAYSGTLSTASTSINAMAAVTVEDLIKPRLRSLAPRKLVIISKGLSLIYGSACLTVAALSSLLGGGVLQGSFTVMGVISGPLLGAFILGMFLPACNTPGVLAGLGAGLALSLWVALGATLYPPSEQTMRVLPSSAARCVALSVNASGLLDPALLPANDSSRAPSSGMDASRPALADSFYAISYLYYGALGTLTTVLCGALISCLTGPTKRSTLAPGLLWWDLARQTASVAPKEEVAIADDNLVKGPEELPTGNKKPPGFLPTNEDRLFFLGQKELEGAGSWTPCVGHDGGRDQQETNL",binds,binds
"hNIS L587A (protein, UniProt Q92911 1-643) MEAVETGERPTFGAWDYGVFALMLLVSTGIGLWVGLARGGQRSAEDFFTGGRRLAALPVGLSLSASFMSAVQVLGVPSEAYRYGLKFLWMCLGQLLNSVLTALLFMPVFYRLGLTSTYEYLEMRFSRAVRLCGTLQYIVATMLYTGIVIYAPALILNQVTGLDIWASLLSTGIICTFYTAVGGMKAVVWTDVFQVVVMLSGFWVVLARGVMLVGGPRQVLTLAQNHSRINLMDFNPDPRSRYTFWTFVVGGTLVWLSMYGVNQAQVQRYVACRTEKQAKLALLINQVGLFLIVSSAACCGIVMFVFYTDCDPLLLGRISAPDQYMPLLVLDIFEDLPGVPGLFLACAYSGTLSTASTSINAMAAVTVEDLIKPRLRSLAPRKLVIISKGLSLIYGSACLTVAALSSLLGGGVLQGSFTVMGVISGPLLGAFILGMFLPACNTPGVLAGLGAGLALSLWVALGATLYPPSEQTMRVLPSSAARCVALSVNASGLLDPALLPANDSSRAPSSGMDASRPALADSFYAISYLYYGALGTLTTVLCGALISCLTGPTKRSTLAPGLLWWDLARQTASVAPKEEVAILDDNAVKGPEELPTGNKKPPGFLPTNEDRLFFLGQKELEGAGSWTPCVGHDGGRDQQETNL",binds,binds
"hNIS L594A (protein, UniProt Q92911 1-643) MEAVETGERPTFGAWDYGVFALMLLVSTGIGLWVGLARGGQRSAEDFFTGGRRLAALPVGLSLSASFMSAVQVLGVPSEAYRYGLKFLWMCLGQLLNSVLTALLFMPVFYRLGLTSTYEYLEMRFSRAVRLCGTLQYIVATMLYTGIVIYAPALILNQVTGLDIWASLLSTGIICTFYTAVGGMKAVVWTDVFQVVVMLSGFWVVLARGVMLVGGPRQVLTLAQNHSRINLMDFNPDPRSRYTFWTFVVGGTLVWLSMYGVNQAQVQRYVACRTEKQAKLALLINQVGLFLIVSSAACCGIVMFVFYTDCDPLLLGRISAPDQYMPLLVLDIFEDLPGVPGLFLACAYSGTLSTASTSINAMAAVTVEDLIKPRLRSLAPRKLVIISKGLSLIYGSACLTVAALSSLLGGGVLQGSFTVMGVISGPLLGAFILGMFLPACNTPGVLAGLGAGLALSLWVALGATLYPPSEQTMRVLPSSAARCVALSVNASGLLDPALLPANDSSRAPSSGMDASRPALADSFYAISYLYYGALGTLTTVLCGALISCLTGPTKRSTLAPGLLWWDLARQTASVAPKEEVAILDDNLVKGPEEAPTGNKKPPGFLPTNEDRLFFLGQKELEGAGSWTPCVGHDGGRDQQETNL",binds,binds
"wild-type human sodium/iodide symporter (hNIS) (protein, UniProt Q92911 1-643) MEAVETGERPTFGAWDYGVFALMLLVSTGIGLWVGLARGGQRSAEDFFTGGRRLAALPVGLSLSASFMSAVQVLGVPSEAYRYGLKFLWMCLGQLLNSVLTALLFMPVFYRLGLTSTYEYLEMRFSRAVRLCGTLQYIVATMLYTGIVIYAPALILNQVTGLDIWASLLSTGIICTFYTAVGGMKAVVWTDVFQVVVMLSGFWVVLARGVMLVGGPRQVLTLAQNHSRINLMDFNPDPRSRYTFWTFVVGGTLVWLSMYGVNQAQVQRYVACRTEKQAKLALLINQVGLFLIVSSAACCGIVMFVFYTDCDPLLLGRISAPDQYMPLLVLDIFEDLPGVPGLFLACAYSGTLSTASTSINAMAAVTVEDLIKPRLRSLAPRKLVIISKGLSLIYGSACLTVAALSSLLGGGVLQGSFTVMGVISGPLLGAFILGMFLPACNTPGVLAGLGAGLALSLWVALGATLYPPSEQTMRVLPSSAARCVALSVNASGLLDPALLPANDSSRAPSSGMDASRPALADSFYAISYLYYGALGTLTTVLCGALISCLTGPTKRSTLAPGLLWWDLARQTASVAPKEEVAILDDNLVKGPEELPTGNKKPPGFLPTNEDRLFFLGQKELEGAGSWTPCVGHDGGRDQQETNL",binds,binds
"hNIS Y118A (protein, UniProt Q92911 1-643) MEAVETGERPTFGAWDYGVFALMLLVSTGIGLWVGLARGGQRSAEDFFTGGRRLAALPVGLSLSASFMSAVQVLGVPSEAYRYGLKFLWMCLGQLLNSVLTALLFMPVFYRLGLTSTAEYLEMRFSRAVRLCGTLQYIVATMLYTGIVIYAPALILNQVTGLDIWASLLSTGIICTFYTAVGGMKAVVWTDVFQVVVMLSGFWVVLARGVMLVGGPRQVLTLAQNHSRINLMDFNPDPRSRYTFWTFVVGGTLVWLSMYGVNQAQVQRYVACRTEKQAKLALLINQVGLFLIVSSAACCGIVMFVFYTDCDPLLLGRISAPDQYMPLLVLDIFEDLPGVPGLFLACAYSGTLSTASTSINAMAAVTVEDLIKPRLRSLAPRKLVIISKGLSLIYGSACLTVAALSSLLGGGVLQGSFTVMGVISGPLLGAFILGMFLPACNTPGVLAGLGAGLALSLWVALGATLYPPSEQTMRVLPSSAARCVALSVNASGLLDPALLPANDSSRAPSSGMDASRPALADSFYAISYLYYGALGTLTTVLCGALISCLTGPTKRSTLAPGLLWWDLARQTASVAPKEEVAILDDNLVKGPEELPTGNKKPPGFLPTNEDRLFFLGQKELEGAGSWTPCVGHDGGRDQQETNL",binds,binds
